Test results: patent US20150291697A1
Positions count from the first letter of the chain named. Results are given in words; binding and its absence hold for the method and conditions named. Some binding calls cover weakened binding; strength is not graded here.

Target: human transferrin receptor (TfR) on cells (human) (UniProt P02786)
Assay: flow cytometry on TfR-expressing K562 cells, Alexa488-anti-human IgG

B1: TfR412 antibody (antibody, V domains shown)
VH: DVQLVESGGGLVQPGGSLRLSCAASGFPFKSYGMQWVRQAPGKGLEWVAVISFDGSSRYYADSVKGRFTISRDNSKNTLYLQMNSLRAEDTAVYYCARDGALWGGYYSPVDVWGQGTLVTVSA
VL: NFMLTQPHSVSESPGKTVTISCTRSSGSIASNSVQWYQQRPGSAPITVIYEDTQRPSGVPDRFSGSIDSSSNSASLTISGLQTEDEADYYCQSYDSAYHWVFGGGTKLAVLG
- binding: binds

B2: TfR413 antibody (antibody, V domains shown)
VH: B1 VH with G33A, Q35H, F53Y, S57N, R58K, A123S
VL: B1 VL
- binding: binds

B3: TfR414 antibody (antibody, V domains shown)
VH: B1 VH with G33A, Q35H, S57N, R58K, A123S
VL: B1 VL
- binding: binds

B4: TfR415 antibody (antibody, V domains shown)
VH: B1 VH with G33A, Q35H, S56G, A123S
VL: B1 VL
- binding: binds

B5: TfR416 antibody (antibody, V domains shown)
VH: B1 VH with S56G, A123S
VL: B1 VL
- binding: binds

B6: TfR417 antibody (antibody, V domains shown)
VH: B1 VH with P28T, K30S, G33A, S56G, A123S
VL: B1 VL
- binding: binds

B7: TfR418 antibody (antibody, V domains shown)
VH: B1 VH with P28T, K30S, S56G, A123S
VL: B1 VL
- binding: binds

B8: TfR419 antibody (antibody, V domains shown)
VH: B1 VH with P28T, K30S, G33A, A49S, S56G, S57N, A123S
VL: B1 VL
- binding: binds

B9: TfR420 antibody (antibody, V domains shown)
VH: DVQLVESGGGLVQPGGSLRLSCAASGFTFSSYAMQWVRQAPGKGLEWVSIVSFDGGNRYYADSIKGRFTISRDNSKNTLYLQMNSLRAEDTAVYYCARDGALWGGYYSPIDVWGQGTLVTVSS
VL: B1 VL
- binding: binds

B10: TfR421 antibody (antibody, V domains shown)
VH: QVQLVQSGGGVVQPGRSLRLSCAASGFPFKSYGMHWVRQAPGKGLEWVAVISFDGSSKYYADSVKGRFTISRDNSKNTLYLQMNSLRGEDTAVYYCARDSNFWSGYYSPVDVWGQGTTVTVSS
VL: B1 VL with N1D, S33Y, A44S, I46T, T53N, Q82K, A97S, Y98N
- binding: binds

B11: TfR422 antibody (antibody, V domains shown)
VH: B10 VH
VL: B1 VL with N1D, H8Q, S33Y, A44S, I46T, T53N, Q82K, A97S, Y98N, H99Q
- binding: binds

B12: TfR423 antibody (antibody, V domains shown)
VH: B10 VH
VL: DSALTQPPSVSGSPGQSVTISCTGSSSNIIASNSVQWYQQLPGTAPKTVIYEDTQRPSGVPDRFSGSKDSSGNTASLTISGLQAEDEADYYCQSYDSAYHWVFGGGTKLAVLG
- binding: binds

B13: TfR424 antibody (antibody, V domains shown)
VH: B10 VH
VL: B12 VL with D53N, Q93S
- binding: binds

B14: TfR425 antibody (antibody, V domains shown)
VH: B10 VH
VL: DFMLTQPHSVSESPGKTVIISCTRSDGTIAGYYVQWYQQRPGRAPTTVIFEDTQRPSGVPDRFSGSIDRSSNSASLTISGLQTEDEADYYCQSYDSRDHWVFGGGTKLTVLG
- binding: binds

B15: TfR426 antibody (antibody, V domains shown)
VH: B10 VH
VL: B14 VL with H8Q, D26T, G31S, Y32N, Y33S, E51D, D52E, H99Q
- binding: binds

B16: TfR427 antibody (antibody, V domains shown)
VH: B10 VH
VL: DIQMTQSPSSLSASVGDRVTITCRASQIASNSVQWYQQKPGKAPKTVIYEDTQLESGVPSRFSGSGSGTDFTLTISSLQPEDFATYYCQSYDSAYHWVFGQGTKVEIKR
- binding: binds

B17: TfR428 antibody (antibody, V domains shown)
VH: B10 VH
VL: B16 VL with S10T, D70E, E81D
- binding: binds

B18: TfR429 antibody (antibody, V domains shown)
VH: B10 VH
VL: B16 VL with S10T, D70E, E81D, D92N
- binding: binds

B19: TfR430 antibody (antibody, V domains shown)
VH: B10 VH
VL: B16 VL with S10T, D70E, E81D, D92N, H96Q
- binding: binds

B20: TfR431 antibody (antibody, V domains shown)
VH: B10 VH
VL: B16 VL with K42T, E55Q, D70E, S76N
- binding: binds

B21: TfR432 antibody (antibody, V domains shown)
VH: B10 VH
VL: B16 VL with K42T, E55Q, D70E, S76N, D92N
- binding: binds

B22: TfR433 antibody (antibody, V domains shown)
VH: B10 VH
VL: B16 VL with K42T, E55Q, D70E, S76N, D92N, H96Q
- binding: binds
